Results as given in paper PMC2702278.
These are yes or no findings as the source states them, for the method shown. In cells and extracts the contact can be indirect. A yes stands for co-enrichment or nearness to the bait. Other partners may have been found.

Sequences of proteins named here, by UniProt entry; tags and fusion partners are left off. A change or cut given only in a name is not applied to a line headed by its entry.
UniProt Q96B97: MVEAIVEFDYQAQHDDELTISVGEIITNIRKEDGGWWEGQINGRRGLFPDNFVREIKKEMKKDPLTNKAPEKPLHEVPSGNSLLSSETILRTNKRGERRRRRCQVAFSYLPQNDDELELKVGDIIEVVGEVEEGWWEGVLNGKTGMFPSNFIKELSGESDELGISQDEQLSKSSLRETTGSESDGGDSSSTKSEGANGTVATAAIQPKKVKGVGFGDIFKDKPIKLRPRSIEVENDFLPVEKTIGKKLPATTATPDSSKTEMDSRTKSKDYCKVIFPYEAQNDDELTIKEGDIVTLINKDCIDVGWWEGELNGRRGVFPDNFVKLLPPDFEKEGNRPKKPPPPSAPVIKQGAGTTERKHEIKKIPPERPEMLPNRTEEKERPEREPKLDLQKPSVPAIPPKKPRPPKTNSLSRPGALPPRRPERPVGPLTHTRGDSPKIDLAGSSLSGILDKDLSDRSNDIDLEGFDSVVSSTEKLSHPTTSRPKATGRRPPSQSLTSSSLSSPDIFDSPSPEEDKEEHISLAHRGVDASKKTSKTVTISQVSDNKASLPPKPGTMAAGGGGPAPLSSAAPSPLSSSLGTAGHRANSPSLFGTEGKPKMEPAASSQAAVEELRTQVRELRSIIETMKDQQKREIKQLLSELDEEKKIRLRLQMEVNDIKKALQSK

B1: CARP1 (protein, UniProt Q8IX12 1-1150)
chain: MAQFGGQKNPPWATQFTATAVSQPAALGVQQPSLLGASPTIYTQQTALAAAGLTTQTPANYQLTQTAALQQQAAAAAAALQQQYSQPQQALYSVQQQLQQPQQTLLTQPAVALPTSLSLSTPQPTAQITVSYPTPRSSQQQTQPQKQRVFTGVVTKLHDTFGFVDEDVFFQLSAVKGKTPQVGDRVLVEATYNPNMPFKWNAQRIQTLPNQNQSQTQPLLKTPPAVLQPIAPQTTFGVQTQPQPQSLLQAQISAASITPLLQTQPQPLLQQPQQKAGLLQPPVRIVSQPQPARRLDPPSRFSGRNDRGDQVPNRKDDRSRERERERRRSRERSPQRKRSRERSPRRERERSPRRVRRVVPRYTVQFSKFSLDCPSCDMMELRRRYQNLYIPSDFFDAQFTWVDAFPLSRPFQLGNYCNFYVMHREVESLEKNMAILDPPDADHLYSAKVMLMASPSMEDLYHKSCALAEDPQELRDGFQHPARLVKFLVGMKGKDEAMAIGGHWSPSLDGPDPEKDPSVLIKTAIRCCKALTGIDLSVCTQWYRFAEIRYHRPEETHKGRTVPAHVETVVLFFPDVWHCLPTRSEWETLSRGYKQQLVEKLQGERKEADGEQDEEEKDDGEAKEISTPTHWSKLDPKTMKVNDLRKELESRALSSKGLKSQLIARLTKQLKVEEQKEEQKELEKSEKEEDEDDDRKSEDDKEEEERKRQEEIERQRRERRYILPDEPAIIVHPNWAAKSGKFDCSIMSLSVLLDYRLEDNKEHSFEVSLFAELFNEMLQRDFGVRIYKSLLSLPEKEDKKEKDKKSKKDERKDKKEERDDETDEPKPKRRKSGDDKDKKEDRDERKKEDKRKDDSKDDDETEEDNNQDEYDPMEAEEAEDEEDDRDEEEMTKRDDKRDINRYCKERPSKDKEKEKTQMITINRDLLMAFVYFDQSHCGYLLEKDLEEILYTLGLHLSRAQVKKLLNKVVLRESCFYRKLTDTSKDEENHEESESLQEDMLGNRLLLPTPTVKQESKDVEENVGLIVYNGAMVDVGSLLQKLEKSEKVRAEVEQKLQLLEEKTDEDEKTILNLENSNKSLSGELREVKKDLSQLQENLKISENMNLQFENQMNKTIRNLSTVMDEIHTVLKKDNVKNEDKDQKSKENGASV
B2: SRm160 (protein, UniProt Q8IYB3 1-904)
chain: MDAGFFRGTSAEQDNRFSNKQKKLLKQLKFAECLEKKVDMSKVNLEVIKPWITKRVTEILGFEDDVVIEFIFNQLEVKNPDSKMMQINLTGFLNGKNAREFMGELWPLLLSAQENIAGIPSAFLELKKEEIKQRQIEQEKLASMKKQDEDKDKRDKEEKESSREKRERSRSPRRRKSRSPSPRRRSSPVRRERKRSHSRSPRHRTKSRSPSPAPEKKEKTPELPEPSVKVKEPSVQEATSTSDILKVPKPEPIPEPKEPSPEKNSKKEKEKEKTRPRSRSRSKSRSRTRSRSPSHTRPRRRHRSRSRSYSPRRRPSPRRRPSPRRRTPPRRMPPPPRHRRSRSPVRRRRRSSASLSGSSSSSSSSRSRSPPKKPPKRTSSPPRKTRRLSPSASPPRRRHRPSPPATPPPKTRHSPTPQQSNRTRKSRVSVSPGRTSGKVTKHKGTEKRESPSPAPKPRKVELSESEEDKGGKMAAADSVQQRRQYRRQNQQSSSDSGSSSSSEDERPKRSHVKNGEVGRRRRHSPSRSASPSPRKRQKETSPRGRRRRSPSPPPTRRRRSPSPAPPPRRRRTPTPPPRRRTPSPPPRRRSPSPRRYSPPIQRRYSPSPPPKRRTASPPPPPKRRASPSPPPKRRVSHSPPPKQRSSPVTKRRSPSLSSKHRKGSSPSRSTREARSPQPNKRHSPSPRPRAPQTSSSPPPVRRGASSSPQRRQSPSPSTRPIRRVSRTPEPKKIKKAASPSPQSVRRVSSSRSVSGSPEPAAKKPPAPPSPVQSQSPSTNWSPAVPVKKAKSPTPSPSPPRNSDQEGGGKKKKKKKDKKHKKDKKHKKHKKHKKEKAVAAAAAAAVTPAAIAAATTTLAQEEPVAAPEPKKETESEAEDNLDDLEKHLREKALRSMRKAQVSPQS
B3: PHACTR4 (protein, UniProt Q8IZ21 1-702)
chain: MEDPFEEADQPTTEPGMVLDSVEAGDTTPPTKRKSKFSGFGKIFKPWKWRKKKSSDKFKETSEVLERKISMRKPREELVKRGVLLEDPEQGGEDPGKPSDAMLKNGHTTPIGNARSSSPVQVEEEPVRLASLRKAIPEEDLKKRLGSTGSQPNSEAESVPENVPKPPLLPPKRPLSSSHEASEGQAKDATSSGGTARFIISTSITTAPAATTAATSLAKTVNLSVTPSPAPRTLPAAPASTNTTATPSLTHMVPAKQPPIPPPKPAHRNSNPVIAELSQAINSGTLLSKPSPPLPPKRGIPSTSVPTLESAAAITTKTPSDEREKSTCSMGSELLPMISPRSPSPPLPTHIPPEPPRTPPFPAKTFQVVPEIEFPPSLDLHQEIPQQEDQKKEVPKRILDQNFGEPHIPSRLPPLPLHIRIQQALTSPLPMTPILEGSHRAHSLLFENSDSFSEDSSTLGRTRSLPITIEMLKVPDDEEEEEQTCPSTFSEEMTPTSVIPKLPQCLREEEEKESDSDSEGPIQYRDEEDEDESYQSALANKVKRKDTLAMKLNHRPSEPELNLNSWPCKSKEEWNEIRHQIGNTLIRRLSQRPTPEELEQRNILQPKNEADRQAEKREIKRRLTRKLSQRPTVAELLARKILRFNEYVEVTDAQDYDRRADKPWTKLTPADKAAIRKELNEFKSSEMEVHEESKHFTRYHRP
B4: SHIP2 (protein, UniProt O15357 1-1258)
chain: MASACGAPGPGGALGSQAPSWYHRDLSRAAAEELLARAGRDGSFLVRDSESVAGAFALCVLYQKHVHTYRILPDGEDFLAVQTSQGVPVRRFQTLGELIGLYAQPNQGLVCALLLPVEGEREPDPPDDRDASDGEDEKPPLPPRSGSTSISAPTGPSSPLPAPETPTAPAAESAPNGLSTVSHDYLKGSYGLDLEAVRGGASHLPHLTRTLATSCRRLHSEVDKVLSGLEILSKVFDQQSSPMVTRLLQQQNLPQTGEQELESLVLKLSVLKDFLSGIQKKALKALQDMSSTAPPAPQPSTRKAKTIPVQAFEVKLDVTLGDLTKIGKSQKFTLSVDVEGGRLVLLRRQRDSQEDWTTFTHDRIRQLIKSQRVQNKLGVVFEKEKDRTQRKDFIFVSARKREAFCQLLQLMKNKHSKQDEPDMISVFIGTWNMGSVPPPKNVTSWFTSKGLGKTLDEVTVTIPHDIYVFGTQENSVGDREWLDLLRGGLKELTDLDYRPIAMQSLWNIKVAVLVKPEHENRISHVSTSSVKTGIANTLGNKGAVGVSFMFNGTSFGFVNCHLTSGNEKTARRNQNYLDILRLLSLGDRQLNAFDISLRFTHLFWFGDLNYRLDMDIQEILNYISRKEFEPLLRVDQLNLEREKHKVFLRFSEEEISFPPTYRYERGSRDTYAWHKQKPTGVRTNVPSWCDRILWKSYPETHIICNSYGCTDDIVTSDHSPVFGTFEVGVTSQFISKKGLSKTSDQAYIEFESIEAIVKTASRTKFFIEFYSTCLEEYKKSFENDAQSSDNINFLKVQWSSRQLPTLKPILADIEYLQDQHLLLTVKSMDGYESYGECVVALKSMIGSTAQQFLTFLSHRGEETGNIRGSMKVRVPTERLGTRERLYEWISIDKDEAGAKSKAPSVSRGSQEPRSGSRKPAFTEASCPLSRLFEEPEKPPPTGRPPAPPRAAPREEPLTPRLKPEGAPEPEGVAAPPPKNSFNNPAYYVLEGVPHQLLPPEPPSPARAPVPSATKNKVAITVPAPQLGHHRHPRVGEGSSSDEESGGTLPPPDFPPPPLPDSAIFLPPSLDPLPGPVVRGRGGAEARGPPPPKAHPRPPLPPGPSPASTFLGEVASGDDRSCSVLQMAKTLSEVDYAPAGPARSALLPGPLELQPPRGLPSDYGRPLSFPPPRIRESIQEDLAEEAPCLQGGRASGLGEAGMSAWLRAIGLERYEEGLVHNGWDDLEFLSDITEEDLEEAGVQDPAHKRLLLDTLQLSK

How the values were obtained:
[1] = target: GST-fusion SH3A domain of Ruk/CIN85 (UniProt Q96B97); assay: affinity purification with mass spectrometry; GST-fusion SH3 domain (about 10 μg on 40 μl Glutathione Sepharose 4B) incubated 4 h at 4°C with HeLa lysate pre-cleared on GST beads; 20 mM Tris pH 7.5, 150 mM NaCl, 5 mM EDTA, 5% glycerol, 0.5% Triton X-100 (washes 0.1%); SDS-PAGE, in-gel trypsin digestion, LC-MS/MS; hits also found with GST alone removed; only the target purified
[2] = target: GST-fusion SH3C domain of Ruk/CIN85 (UniProt Q96B97); assay: as above

Binder	binding [1]	binding [2]
B1	binds	binds
B2	binds	binds
B3	binds	binds
B4	binds	binds
